Record: PubChem BioAssay AID743454 (Peter MacCallum Cancer Centre, 2014)

Assay: 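Search for knock-downs that restore vorinostat killing in resistant colon cancer cells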 (primary screen)
Cells: human HCT116-VR colon cancer cells, selected for vorinostat resistance
Reagents: siRNA pool against human genes, 40 nM siRNA pool
Time to read-out: vorinostat for 24 h, read-out about 72 h after transfection
Conditions: vorinostat at 2.5 µM final
Measurement: 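Cell viability by CellTiter-Fluor and caspase 3/7 activity by luminescence, each scaled to mock wells per plate, duplicates averaged, then robust z-scored over all plates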
Scale: viability robust z-score: higher = more viable cells than screen typical; caspase robust z-score: higher = more caspase 3/7 activity than screen typical
Active means: 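a knock-down is a hit when classed RV1 or RV2 for lowered viability, or CA1 or CA2 for caspase activation; those lethal without drug were dropped; hits were retested singly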
This is an unselected part of about 18,000 reagents tested. 450 of all reagents (2.5%) count as active. 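Single biological run; no consistent viability z cut-off exists, so the class columns, not z-scores, define the calls.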 Unmarked entries are inactive.

The first 2 records as a preview:
CCDC167 (GeneID 154467) | viability hit class: no change; caspase hit class: no change; viability robust z-score: 1; caspase robust z-score: -0.5
SULT1A3 (GeneID 6818) | viability hit class: no change; caspase hit class: no change; viability robust z-score: 0.47; caspase robust z-score: -0.44

The list itself, from the start:
CCDC167 (GeneID 154467) | viability hit class: no change; caspase hit class: no change; viability robust z-score: 1; caspase robust z-score: -0.5
SULT1A3 (GeneID 6818) | viability hit class: no change; caspase hit class: no change; viability robust z-score: 0.47; caspase robust z-score: -0.44
ZXDC (GeneID 79364) | viability hit class: no change; caspase hit class: no change; viability robust z-score: 0.32; caspase robust z-score: -0.31
DAZ4 (GeneID 57135) | viability hit class: no change; caspase hit class: no change; viability robust z-score: -0.02; caspase robust z-score: -0.41
HOXA11 (GeneID 3207) | viability hit class: no change; caspase hit class: no change; viability robust z-score: -0.57; caspase robust z-score: 0.54
IGF1 (GeneID 3479) | viability hit class: no change; caspase hit class: no change; viability robust z-score: -0.12; caspase robust z-score: 3.8
IGIP (GeneID 492311) | viability hit class: no change; caspase hit class: no change; viability robust z-score: 0.55; caspase robust z-score: -0.3
ERCC5 (GeneID 2073) | viability hit class: no change; caspase hit class: no change; viability robust z-score: -0.45; caspase robust z-score: 0.06
SRA1 (GeneID 10011) | viability hit class: no change; caspase hit class: no change; viability robust z-score: -0.62; caspase robust z-score: 3.24
RCC2 (GeneID 55920) | viability hit class: no change; caspase hit class: no change; viability robust z-score: 0.55; caspase robust z-score: -0.54
CPB2 (GeneID 1361) | viability hit class: no change; caspase hit class: no change; viability robust z-score: -0.61; caspase robust z-score: -0.32
RPL26L1 (GeneID 51121) | viability hit class: no change; caspase hit class: no change; viability robust z-score: 0.41; caspase robust z-score: -0.2
DNAJB3P (GeneID 414061) | viability hit class: no change; caspase hit class: no change; viability robust z-score: 0.26; caspase robust z-score: 0.89
VBP1 (GeneID 7411) | viability hit class: no change; caspase hit class: no change; viability robust z-score: -0.52; caspase robust z-score: -1
KPNA1 (GeneID 3836) | viability hit class: no change; caspase hit class: no change; viability robust z-score: 0.9; caspase robust z-score: -0.28
PIK3CA (GeneID 5290) | viability hit class: no change; caspase hit class: no change; viability robust z-score: -0.52; caspase robust z-score: 2.29
PLS1 (GeneID 5357) | viability hit class: no change; caspase hit class: no change; viability robust z-score: -1.31; caspase robust z-score: 0.96
KNTC1 (GeneID 9735) | viability hit class: no change; caspase hit class: no change; viability robust z-score: 0.72; caspase robust z-score: -0.06
NIPAL2 (GeneID 79815) | viability hit class: no change; caspase hit class: no change; viability robust z-score: 0.64; caspase robust z-score: 1.66
PTN (GeneID 5764) | viability hit class: no change; caspase hit class: no change; viability robust z-score: -0.48; caspase robust z-score: -0.38
GNRHR (GeneID 2798) | viability hit class: no change; caspase hit class: no change; viability robust z-score: 0.37; caspase robust z-score: -0.44
